Measured values from publication PMC10799020.
No constants are given. Whether binding was seen depends on the method and setting. Some entries that bind do so weakly or less than the wild type. For some of these results: Sequences can lack the tags named with a protein. Blank lines part the entries; values can stand above or below the molecule they belong to.

Chains of the proteins cited; added tags and fusions are not shown. Residues count along the entry.
UniProt Q13705, residues 19-512: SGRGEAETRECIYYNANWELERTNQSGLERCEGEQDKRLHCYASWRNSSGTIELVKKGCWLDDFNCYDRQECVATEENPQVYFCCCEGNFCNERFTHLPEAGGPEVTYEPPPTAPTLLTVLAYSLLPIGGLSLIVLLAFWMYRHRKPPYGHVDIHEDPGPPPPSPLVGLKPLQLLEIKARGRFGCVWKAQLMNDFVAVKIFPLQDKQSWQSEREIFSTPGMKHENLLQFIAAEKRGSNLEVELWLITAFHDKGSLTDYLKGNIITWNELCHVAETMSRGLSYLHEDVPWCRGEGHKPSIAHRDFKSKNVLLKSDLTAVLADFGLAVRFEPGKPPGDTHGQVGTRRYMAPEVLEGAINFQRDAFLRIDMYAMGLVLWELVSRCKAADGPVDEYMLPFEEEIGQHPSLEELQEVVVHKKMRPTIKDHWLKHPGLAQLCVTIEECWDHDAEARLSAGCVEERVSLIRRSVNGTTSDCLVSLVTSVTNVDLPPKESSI
UniProt P35968, residues 20-1356: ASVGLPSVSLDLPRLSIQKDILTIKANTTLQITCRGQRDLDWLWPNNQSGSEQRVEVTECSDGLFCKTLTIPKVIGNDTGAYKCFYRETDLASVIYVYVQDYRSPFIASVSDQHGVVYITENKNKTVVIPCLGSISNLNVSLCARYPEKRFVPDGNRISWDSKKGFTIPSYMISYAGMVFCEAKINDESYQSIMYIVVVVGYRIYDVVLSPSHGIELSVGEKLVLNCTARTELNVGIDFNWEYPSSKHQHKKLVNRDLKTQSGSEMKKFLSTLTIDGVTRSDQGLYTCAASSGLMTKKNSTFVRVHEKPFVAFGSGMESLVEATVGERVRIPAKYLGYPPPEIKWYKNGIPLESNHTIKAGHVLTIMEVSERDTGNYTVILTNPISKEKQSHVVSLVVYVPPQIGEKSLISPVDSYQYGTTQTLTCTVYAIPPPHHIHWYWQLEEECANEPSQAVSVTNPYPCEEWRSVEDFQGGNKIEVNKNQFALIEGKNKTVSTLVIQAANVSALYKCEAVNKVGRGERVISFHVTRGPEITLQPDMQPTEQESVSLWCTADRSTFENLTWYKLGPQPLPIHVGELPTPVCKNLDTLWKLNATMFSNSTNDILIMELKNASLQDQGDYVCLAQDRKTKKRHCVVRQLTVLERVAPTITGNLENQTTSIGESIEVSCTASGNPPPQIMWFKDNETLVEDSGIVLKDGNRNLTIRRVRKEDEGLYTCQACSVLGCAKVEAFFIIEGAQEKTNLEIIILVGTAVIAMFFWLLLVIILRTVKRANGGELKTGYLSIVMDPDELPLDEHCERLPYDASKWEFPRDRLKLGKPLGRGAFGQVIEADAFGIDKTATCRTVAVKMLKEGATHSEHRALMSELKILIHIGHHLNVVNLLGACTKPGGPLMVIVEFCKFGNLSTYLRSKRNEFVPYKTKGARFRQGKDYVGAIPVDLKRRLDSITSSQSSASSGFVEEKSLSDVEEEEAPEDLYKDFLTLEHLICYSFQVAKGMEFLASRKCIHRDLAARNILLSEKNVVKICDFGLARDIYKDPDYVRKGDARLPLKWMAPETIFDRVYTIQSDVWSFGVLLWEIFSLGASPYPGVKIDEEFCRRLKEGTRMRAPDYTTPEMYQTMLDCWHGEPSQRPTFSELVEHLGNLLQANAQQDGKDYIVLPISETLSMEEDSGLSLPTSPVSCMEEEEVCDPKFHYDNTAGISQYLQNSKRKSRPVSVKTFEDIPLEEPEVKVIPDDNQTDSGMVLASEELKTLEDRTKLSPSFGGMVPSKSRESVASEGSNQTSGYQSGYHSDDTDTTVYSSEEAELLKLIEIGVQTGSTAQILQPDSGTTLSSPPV
UniProt O14786, residues 22-923: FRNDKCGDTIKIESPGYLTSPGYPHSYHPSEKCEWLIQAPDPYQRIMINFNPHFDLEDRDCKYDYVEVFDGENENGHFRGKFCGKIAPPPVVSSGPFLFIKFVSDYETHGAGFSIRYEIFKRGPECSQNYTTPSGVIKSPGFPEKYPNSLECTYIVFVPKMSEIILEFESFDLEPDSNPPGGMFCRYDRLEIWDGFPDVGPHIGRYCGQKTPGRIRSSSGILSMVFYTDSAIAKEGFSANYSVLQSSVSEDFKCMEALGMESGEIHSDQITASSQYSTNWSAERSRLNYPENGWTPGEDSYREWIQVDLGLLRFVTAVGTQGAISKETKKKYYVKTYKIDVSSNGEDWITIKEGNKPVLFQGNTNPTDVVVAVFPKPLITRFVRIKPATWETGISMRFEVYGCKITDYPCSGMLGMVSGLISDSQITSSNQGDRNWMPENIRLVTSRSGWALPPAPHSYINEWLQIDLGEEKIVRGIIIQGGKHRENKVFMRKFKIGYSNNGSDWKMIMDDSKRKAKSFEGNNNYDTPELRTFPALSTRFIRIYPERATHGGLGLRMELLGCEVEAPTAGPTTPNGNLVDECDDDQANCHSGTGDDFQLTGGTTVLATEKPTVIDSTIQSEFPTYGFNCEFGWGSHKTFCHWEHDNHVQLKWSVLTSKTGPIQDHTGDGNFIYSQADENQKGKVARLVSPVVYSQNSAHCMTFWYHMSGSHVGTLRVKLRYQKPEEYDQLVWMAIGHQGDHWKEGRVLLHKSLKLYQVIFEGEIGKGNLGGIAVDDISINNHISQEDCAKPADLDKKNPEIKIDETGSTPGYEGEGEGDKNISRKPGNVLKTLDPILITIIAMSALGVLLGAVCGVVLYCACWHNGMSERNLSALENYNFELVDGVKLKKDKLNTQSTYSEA

Key:
[1] = target: T1, HA-tagged endoglin-L (ENG) (UniProt P17813); test: competition patch/FRAP; live COS7 cells coexpressing HA-ENG (immobilised by IgG) and myc-VEGFR2 (Fab'-labelled, measured) with overexpressed untagged NRP1 as competitor
T1 sequence: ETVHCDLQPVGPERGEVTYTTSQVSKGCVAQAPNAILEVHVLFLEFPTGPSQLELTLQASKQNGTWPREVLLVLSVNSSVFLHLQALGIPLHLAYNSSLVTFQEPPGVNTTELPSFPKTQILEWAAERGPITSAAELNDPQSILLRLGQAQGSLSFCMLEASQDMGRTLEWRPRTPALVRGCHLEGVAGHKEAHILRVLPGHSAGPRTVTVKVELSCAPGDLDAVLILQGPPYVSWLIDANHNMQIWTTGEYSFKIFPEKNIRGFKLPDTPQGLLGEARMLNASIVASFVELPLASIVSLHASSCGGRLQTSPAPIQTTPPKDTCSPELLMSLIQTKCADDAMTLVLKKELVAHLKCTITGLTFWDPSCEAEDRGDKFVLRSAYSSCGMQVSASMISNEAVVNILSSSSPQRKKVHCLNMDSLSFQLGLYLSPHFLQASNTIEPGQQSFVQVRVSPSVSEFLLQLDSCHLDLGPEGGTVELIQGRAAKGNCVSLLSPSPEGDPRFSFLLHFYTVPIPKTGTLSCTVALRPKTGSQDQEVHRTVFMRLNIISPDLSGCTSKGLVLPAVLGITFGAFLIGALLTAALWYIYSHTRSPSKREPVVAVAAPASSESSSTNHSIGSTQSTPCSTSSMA

untagged endoglin (ENG) = target: T2, untagged endoglin (ENG) (UniProt P17813); test: patch/FRAP (IgG-mediated immobilisation of one receptor, FRAP of the coexpressed Fab'-labelled receptor); live COS7 cells coexpressing myc-NRP1, HA-VEGFR2 and untagged, uncrosslinked ENG as a third component; HA-VEGFR2 immobilised by IgG, Fab'-labelled myc-NRP1 measured; FRAP at 15 °C
T2 sequence: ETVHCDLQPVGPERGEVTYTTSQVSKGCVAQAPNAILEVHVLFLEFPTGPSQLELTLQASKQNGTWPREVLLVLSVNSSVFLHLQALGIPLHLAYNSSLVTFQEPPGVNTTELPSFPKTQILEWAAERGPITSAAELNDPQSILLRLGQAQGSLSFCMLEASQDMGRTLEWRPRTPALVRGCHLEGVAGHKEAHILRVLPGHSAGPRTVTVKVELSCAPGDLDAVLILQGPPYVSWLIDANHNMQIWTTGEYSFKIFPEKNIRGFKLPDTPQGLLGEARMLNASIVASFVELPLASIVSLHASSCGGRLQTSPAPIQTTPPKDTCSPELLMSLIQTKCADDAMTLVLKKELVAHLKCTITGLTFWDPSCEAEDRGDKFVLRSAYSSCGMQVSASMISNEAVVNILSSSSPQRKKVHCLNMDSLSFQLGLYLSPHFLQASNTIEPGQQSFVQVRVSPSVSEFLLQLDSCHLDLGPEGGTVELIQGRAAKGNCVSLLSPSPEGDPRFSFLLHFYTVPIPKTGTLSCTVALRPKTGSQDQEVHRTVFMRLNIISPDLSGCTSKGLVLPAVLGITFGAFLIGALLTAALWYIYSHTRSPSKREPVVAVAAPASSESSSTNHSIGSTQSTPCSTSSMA

[2] = target: N-terminally HA-tagged human activin receptor type 2B (ACVR2B) (human) (UniProt Q13705); test: patch/FRAP (IgG-mediated immobilisation of one receptor, FRAP of the coexpressed Fab'-labelled receptor); live COS7 cells coexpressing two receptors with different extracellular tags; one crosslinked and immobilised by IgG against its tag, the other labelled only by monovalent fluorescent Fab'; labelling at 4 °C in HBSS/HEPES/BSA, FRAP at 15 °C; values without ligand; VEGF-A (50 ng/ml) enhanced the complexes, BMP9 (5 ng/ml) did not
[3] = target: N-terminally HA-tagged human VEGFR2 (human) (UniProt P35968); test: patch/FRAP (IgG-mediated immobilisation of one receptor, FRAP of the coexpressed Fab'-labelled receptor); live COS7 cells coexpressing myc-NRP1, HA-VEGFR2 and untagged, uncrosslinked ENG as a third component; HA-VEGFR2 immobilised by IgG, Fab'-labelled myc-NRP1 measured; FRAP at 15 °C

binding [1]: binds
Molecule: N-terminally myc-tagged human VEGFR2 (from UniProt P35968 20-1356) (receptor)

binding (untagged endoglin (ENG)): binds | binding [2]: no binding
Molecule: myc-tagged human neuropilin 1 (NRP1) (from UniProt O14786 22-923) (receptor)

binding [3]: binds
B1: untagged endoglin (ENG) (receptor, UniProt P17813 26-658)
chain: ETVHCDLQPVGPERGEVTYTTSQVSKGCVAQAPNAILEVHVLFLEFPTGPSQLELTLQASKQNGTWPREVLLVLSVNSSVFLHLQALGIPLHLAYNSSLVTFQEPPGVNTTELPSFPKTQILEWAAERGPITSAAELNDPQSILLRLGQAQGSLSFCMLEASQDMGRTLEWRPRTPALVRGCHLEGVAGHKEAHILRVLPGHSAGPRTVTVKVELSCAPGDLDAVLILQGPPYVSWLIDANHNMQIWTTGEYSFKIFPEKNIRGFKLPDTPQGLLGEARMLNASIVASFVELPLASIVSLHASSCGGRLQTSPAPIQTTPPKDTCSPELLMSLIQTKCADDAMTLVLKKELVAHLKCTITGLTFWDPSCEAEDRGDKFVLRSAYSSCGMQVSASMISNEAVVNILSSSSPQRKKVHCLNMDSLSFQLGLYLSPHFLQASNTIEPGQQSFVQVRVSPSVSEFLLQLDSCHLDLGPEGGTVELIQGRAAKGNCVSLLSPSPEGDPRFSFLLHFYTVPIPKTGTLSCTVALRPKTGSQDQEVHRTVFMRLNIISPDLSGCTSKGLVLPAVLGITFGAFLIGALLTAALWYIYSHTRSPSKREPVVAVAAPASSESSSTNHSIGSTQSTPCSTSSMA
